Record: PubChem BioAssay AID743121 (NCATS, 2013)
The whole screen tested about 26,000 reagents; below is an unselected part. 167 of them (0.63%) count as active. 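Calls are per gene from RSA p-values that are not deposited; an individual active-marked siRNA can sensitise only weakly.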 Unmarked entries are inactive. Reagents against one gene are numbered here. Further read-outs or replicates are left out here. Reagent sequences are not shown.

Assay: 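Partners whose loss is lethal together with topoisomerase I blockade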 (primary screen)
Cell system: MDA-MB-231 cells, a human breast cancer line
Reagent: single siRNA against human genes, 20 nM siRNA (0.8 pmol per well)
Time to read-out: 120 h (drug added 48 h after transfection, read 72 h later)
Conditions: camptothecin 20 nM (about EC30) for 72 h; vehicle 0.1% DMSO in parallel plates
Detection: 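Cell viability by ATP luminescence (CellTiter-Glo) as % of non-targeting siRNA wells, and the log2 ratio of viability without drug over viability with camptothecin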
Direction: log2 vehicle/camptothecin viability: higher = stronger sensitisation to camptothecin
Active means: 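Active genes have an RSA gene-level p-value below 0.001, computed from the ratios of their separate siRNAs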

| gene | siRNA no. | log2 vehicle/camptothecin viability |
| --- | --- | --- |
| VPS16 | 1 | -0.195 |
| VPS16 | 2 | -0.374 |
| VPS16 | 3 | 0.198 |
| VPS16 | 4 | -0.311 |
| DEF6 | 1 | 0.433 |
| DEF6 | 2 | -0.141 |
| DEF6 | 3 | -0.233 |
| DEF6 | 4 | 0.115 |
| PYGM | 1 | -0.578 |
| PYGM | 2 | -0.00336 |
| PYGM | 3 | -0.0327 |
| PYGM | 4 | -0.149 |
| FRAT2 | 1 | -0.338 |
| FRAT2 | 2 | -0.336 |
| FRAT2 | 3 | 0.115 |
| TAX1BP1 | 1 | -0.584 |
| TAX1BP1 | 2 | -0.0653 |
| TAX1BP1 | 3 | -0.214 |
| TAX1BP1 | 4 | -0.289 |
| ATG5 | 1 | 0.361 |
| ATG5 | 2 | -0.636 |
| ATG5 | 3 | -0.215 |
| ATG5 | 4 | 0.0495 |
| ASNS | 1 | 0.0571 |
| ASNS | 2 | -0.3 |
| ASNS | 3 | 0.0419 |
| ASNS | 4 | -0.19 |
| CD3E | 1 | -0.23 |
| CD3E | 2 | -0.343 |
| CD3E | 3 | 0.414 |
| OR2S2 | 1 | -0.0773 |
| OR2S2 | 2 | -0.00502 |
| OR2S2 | 3 | -0.29 |
| OR2S2 | 4 | -0.143 |
| GKAP1 | 1 | -0.178 |
| GKAP1 | 2 | -0.0825 |
| GKAP1 | 3 | 0.882 |
| GKAP1 | 4 | 0.0173 |
| BACE1 | 1 | -0.078 |
| BACE1 | 2 | -0.253 |
| BACE1 | 3 | 0.455 |
| BACE1 | 4 | 0.169 |
| MTUS1 | 1 | -0.0615 |
| MTUS1 | 2 | -0.183 |
| MTUS1 | 3 | -0.282 |
| MTUS1 | 4 | -0.33 |
